{"source": "patent US20090068207A1", "about": "“Compositions Containing Beta 2-Glycoprotein I-Derived Peptides for the Prevention and/or Treatment of Vascular Disease” (Vascular Biogenics Ltd., priority 2005, published 2009)", "format_in_all_cases": "in vivo", "key": {"[1]": {"experiment": "Body weight, plasma cholesterol and triglyceride after oral administration (LDL-RD mice)", "details": "for Cholesterol / Triglyceride / Weight: mean ± S.E"}, "[2]": {"experiment": "Body weight, plasma cholesterol and triglyceride after oral administration (ApoE-KO mice)", "details": "for Cholesterol / Triglyceride / Weight: ApoE-KO mice"}, "[3]": {"experiment": "Body weight, plasma cholesterol and triglyceride after nasal administration (LDL-RD mice)", "details": "END, intranasal 10 μg/mouse every other day for 5 days, then Western diet"}, "[4]": {"experiment": "Body weight, plasma cholesterol and triglyceride after intraperitoneal immunization (LDL-RD mice)", "details": "head 100 μg"}, "[5]": {"experiment": "Body weight, plasma cholesterol and triglyceride after nasal administration (ApoE-KO mice)", "details": "mean ± S.E"}, "[6]": {"details": "Time 0, intraperitoneal immunization groups, mean ± S.E"}, "[7]": {"details": "Time 0, nasal 10 μg/mouse groups"}, "[8]": {"details": "End t = 16 wks, oral 50 μg/mouse, mean ± S.E"}, "[9]": {"details": "Start t = 0, oral 50 μg/mouse group, mean ± S.E"}}}
{"molecule": "β2GPI: beta2-glycoprotein I, species not stated at the place (human or bovine; FIG. 7 legend says bovine) (protein, UniProt P17690 20-345, looked up) Beta-2-glycoprotein 1: GRTCPKPDELPFSTVVPLKRTYEPGEQIVFSCQPGYVSRGGIRRFTCPLTGLWPINTLKCMPRVCPFAGILENGTVRYTTFEYPNTISFSCHTGFYLKGASSAKCTEEGKWSPDLPVCAPITCPPPPIPKFASLSVYKPLAGNNSFYGSKAVFKCLPHHAMFGNDTVTCTEHGNWTQLPECREVRCPFPSRPDNGFVNHPANPVLYYKDTATFGCHETYSLDGPEEVECSKFGNWSAQPSCKASCKLSIKRATVIYEGERVAIQNKFKNGMLHGQKVSFFCKHKEKKCSYTEDAQCIDGTIEIPKCFKEHSSLAFWKTDASDVKPC", "values": [{"measurement": "influence on total cholesterol or triglycerides levels", "setting": "[1]; oral, at either dose (500 or 50 μg)", "result": "No significant influence"}, {"measurement": "influence on body weight, total cholesterol or triglycerides levels", "setting": "[2]; oral 50 μg, adult male Apo-E KO mice", "result": "No significant influence"}]}
{"molecule": "B-β2 GPI: bovine beta2-glycoprotein I purified from serum (protein, UniProt P17690 20-345, looked up) Beta-2-glycoprotein 1: GRTCPKPDELPFSTVVPLKRTYEPGEQIVFSCQPGYVSRGGIRRFTCPLTGLWPINTLKCMPRVCPFAGILENGTVRYTTFEYPNTISFSCHTGFYLKGASSAKCTEEGKWSPDLPVCAPITCPPPPIPKFASLSVYKPLAGNNSFYGSKAVFKCLPHHAMFGNDTVTCTEHGNWTQLPECREVRCPFPSRPDNGFVNHPANPVLYYKDTATFGCHETYSLDGPEEVECSKFGNWSAQPSCKASCKLSIKRATVIYEGERVAIQNKFKNGMLHGQKVSFFCKHKEKKCSYTEDAQCIDGTIEIPKCFKEHSSLAFWKTDASDVKPC", "values": [{"measurement": "Cholesterol", "setting": "[1]; End, oral 50 μg", "result": "1200 ± 76", "unit": "mg/dL"}, {"measurement": "Triglyceride", "setting": "[1]; End, oral 50 μg", "result": "313 ± 51", "unit": "mg/dL"}, {"measurement": "Weight", "setting": "[1]; End, oral 50 μg", "result": "30.8 ± 0.8", "unit": "g"}, {"measurement": "Cholesterol", "setting": "[1]; End, oral 500 μg", "result": "1196 ± 75", "unit": "mg/dL"}, {"measurement": "Triglyceride", "setting": "[1]; End, oral 500 μg", "result": "318 ± 55", "unit": "mg/dL"}, {"measurement": "Weight", "setting": "[1]; End, oral 500 μg", "result": "29.8 ± 0.9", "unit": "g"}, {"measurement": "Cholesterol", "setting": "[1]; Start, oral 50 μg groups", "result": "231 ± 14", "unit": "mg/dL"}, {"measurement": "Triglyceride", "setting": "[1]; Start, oral 50 μg groups", "result": "179 ± 20", "unit": "mg/dL"}, {"measurement": "Weight", "setting": "[1]; Start, oral 50 μg groups", "result": "26.4 ± 0.7", "unit": "g"}, {"measurement": "Cholesterol", "setting": "[1]; Start, oral 500 μg groups", "result": "233 ± 15", "unit": "mg/dL"}, {"measurement": "Triglyceride", "setting": "[1]; Start, oral 500 μg groups", "result": "178 ± 23", "unit": "mg/dL"}, {"measurement": "Weight", "setting": "[1]; Start, oral 500 μg groups", "result": "25.7 ± 0.7", "unit": "g"}]}
{"molecule": "Human β2 GPI: human beta2-glycoprotein I (SEQ ID NO: 10) purified from serum (protein) MISPVLILFSSFLCHVAIAGRTCPKPDDLPFSTVVPLKTFYEPGEEITYSCKPGYVSRGGMRKFICPLTGLWPINTLKCTPRVCPFAGILENGAVRYTTFEYPNTISFSCNTGFYLNGADSAKCTEEGKWSPELPVCAPIICPPPSIPTFATLRVYKPSAGNNSLYRDTAVFECLPQHAMFGNDTITCTTHGNWTKLPECREVKCPFPSRPDNGFVNYPAKPTLYYKDKATFGCHDGYSLDGPEEIECTKLGNWSAMPSCKASCKLPVKKATVVYQGERVKIQEKFKNGMLHGDKVSFFCKNKEKKCSYTEDAQCIDGTIEVPKCFKEHSSLAFWKTDASDVKPC", "values": [{"measurement": "Weight", "setting": "[3]; mean ± S.E", "result": "29.2 ± 1.5", "unit": "g"}, {"measurement": "Triglyceride", "setting": "[3]; median", "result": 380, "unit": "mg/dL"}, {"measurement": "Cholesterol", "setting": "[1]; End, oral 50 μg", "result": "1237 ± 71", "unit": "mg/dL"}, {"measurement": "Triglyceride", "setting": "[1]; End, oral 50 μg", "result": "342 ± 51", "unit": "mg/dL"}, {"measurement": "Weight", "setting": "[1]; End, oral 50 μg", "result": "32.0 ± 0.6", "unit": "g"}, {"measurement": "Cholesterol", "setting": "[1]; End, oral 100 μg", "result": "1130 ± 84", "unit": "mg/dL"}, {"measurement": "Triglyceride", "setting": "[1]; End, oral 100 μg", "result": "295 ± 37", "unit": "mg/dL"}, {"measurement": "Weight", "setting": "[1]; End, oral 100 μg", "result": "26.5 ± 0.7", "unit": "g"}, {"measurement": "Cholesterol", "setting": "[1]; End, oral 500 μg", "result": "1232 ± 92", "unit": "mg/dL"}, {"measurement": "Triglyceride", "setting": "[1]; End, oral 500 μg", "result": "415 ± 62", "unit": "mg/dL"}, {"measurement": "Weight", "setting": "[1]; End, oral 500 μg", "result": "31.4 ± 1.0", "unit": "g"}, {"measurement": "Cholesterol", "setting": "[1]; Start, oral 50 μg groups", "result": "227 ± 14", "unit": "mg/dL"}, {"measurement": "Triglyceride", "setting": "[1]; Start, oral 50 μg groups", "result": "212 ± 26", "unit": "mg/dL"}, {"measurement": "Weight", "setting": "[1]; Start, oral 50 μg groups", "result": "26.4 ± 0.7", "unit": "g"}, {"measurement": "Cholesterol", "setting": "[1]; Start, oral 500 μg groups", "result": "231 ± 16", "unit": "mg/dL"}, {"measurement": "Triglyceride", "setting": "[1]; Start, oral 500 μg groups", "result": "182 ± 18", "unit": "mg/dL"}, {"measurement": "Weight", "setting": "[1]; Start, oral 500 μg groups", "result": "27.1 ± 0.7", "unit": "g"}, {"measurement": "Cholesterol", "setting": "[1]; Time 0, oral 100 μg groups", "result": "247 ± 9", "unit": "mg/dL"}, {"measurement": "Triglyceride", "setting": "[1]; Time 0, oral 100 μg groups", "result": "254 ± 27", "unit": "mg/dL"}, {"measurement": "Weight", "setting": "[1]; Time 0, oral 100 μg groups", "result": "20.0 ± 0.7", "unit": "g"}, {"measurement": "Cholesterol", "setting": "[2]; End, oral 50 μg, 5 doses", "result": "339 ± 11", "unit": "mg/dL"}, {"measurement": "Triglyceride", "setting": "[2]; End, oral 50 μg, 5 doses", "result": "78 ± 3", "unit": "mg/dL"}, {"measurement": "Weight", "setting": "[2]; End, oral 50 μg, 5 doses", "result": "25.6 ± 0.5", "unit": "g"}, {"measurement": "Cholesterol", "setting": "[2]; Time 0, oral 50 μg groups", "result": "377 ± 24", "unit": "mg/dL"}, {"measurement": "Triglyceride", "setting": "[2]; Time 0, oral 50 μg groups", "result": "86 ± 5", "unit": "mg/dL"}, {"measurement": "Weight", "setting": "[2]; Time 0, oral 50 μg groups", "result": "24.5 ± 0.7", "unit": "g"}, {"measurement": "Cholesterol", "setting": "[4]; End, intraperitoneal with incomplete Freund's adjuvant, mean ± S.E", "result": "1319 ± 136", "unit": "mg/dL"}, {"measurement": "Triglyceride", "setting": "[4]; End, intraperitoneal with incomplete Freund's adjuvant, median", "result": 315, "unit": "mg/dL"}, {"measurement": "Cholesterol", "setting": "[4]; [6]", "result": "202 ± 11", "unit": "mg/dL"}, {"measurement": "Triglyceride", "setting": "[4]; [6]", "result": "77 ± 11", "unit": "mg/dL"}, {"measurement": "Weight", "setting": "[4]; [6]", "result": "19.9 ± 1.0", "unit": "g"}, {"measurement": "Weight", "setting": "[4]; second weight line (End), intraperitoneal with incomplete Freund's adjuvant, mean ± S.E", "result": "30.6 ± 1.1", "unit": "g"}, {"measurement": "Cholesterol", "setting": "[5]; End, nasal 10 μg/mouse", "result": "308 ± 9", "unit": "mg/dL"}, {"measurement": "Triglyceride", "setting": "[5]; End, nasal 10 μg/mouse", "result": "108 ± 4", "unit": "mg/dL"}, {"measurement": "Weight", "setting": "[5]; End, nasal 10 μg/mouse", "result": "25.5 ± 0.4", "unit": "g"}, {"measurement": "Cholesterol", "setting": "[5]; [7]", "result": "357 ± 13", "unit": "mg/dL"}, {"measurement": "Triglyceride", "setting": "[5]; [7]", "result": "67 ± 5", "unit": "mg/dL"}, {"measurement": "Weight", "setting": "[5]; [7]", "result": "20.0 ± 0.5", "unit": "g"}]}
{"molecule": "B-β2GPI: head of Table 5; text and footnote say human β2GPI, 50 μg/mouse orally (protein, UniProt P02749 20-345, looked up) Beta-2-glycoprotein 1: GRTCPKPDDLPFSTVVPLKTFYEPGEEITYSCKPGYVSRGGMRKFICPLTGLWPINTLKCTPRVCPFAGILENGAVRYTTFEYPNTISFSCNTGFYLNGADSAKCTEEGKWSPELPVCAPIICPPPSIPTFATLRVYKPSAGNNSLYRDTAVFECLPQHAMFGNDTITCTTHGNWTKLPECREVKCPFPSRPDNGFVNYPAKPTLYYKDKATFGCHDGYSLDGPEEIECTKLGNWSAMPSCKASCKVPVKKATVVYQGERVKIQEKFKNGMLHGDKVSFFCKNKEKKCSYTEDAQCIDGTIEVPKCFKEHSSLAFWKTDASDVKPC", "values": [{"measurement": "Cholesterol", "setting": "[2]; [8]", "result": "505 ± 42", "unit": "mg/dL"}, {"measurement": "Triglyceride", "setting": "[2]; [8]", "result": "109 ± 9", "unit": "mg/dL"}, {"measurement": "Weight", "setting": "[2]; [8]", "result": "29.6 ± 0.8", "unit": "g"}, {"measurement": "Cholesterol", "setting": "[2]; [9]", "result": "360 ± 17", "unit": "mg/dL"}, {"measurement": "Triglyceride", "setting": "[2]; [9]", "result": "71 ± 17", "unit": "mg/dL"}, {"measurement": "Weight", "setting": "[2]; [9]", "result": "25.5 ± 0.4", "unit": "g"}]}
